Measurements as given in US20230220346A1, “BIOLOGICALLY SYNTHESIZED HYDROXYAPATITE FOR BONE REGENERATION AND TISSUE ENGINEERING” (BIOVENTURES, LLC, priority 2019, published 2023).
For at least one compound, name, drawing or mass did not settle the structure.

Columns and labels:
MG-63 cell line = assay: Alizarin Red S (ARS) biomineralization assay in MG-63; format: cell-based, human; conditions: MEMα/10% FBS plus the supplement only, no ALP added, 7 days
Protocol: (§1) Biomineralization assays and Alizarin Red S staining: All human and mouse cell lines and human peripheral blood mononuclear cells (MNCs) were maintained in MEMα/10% FBS with penicillin/streptomycin and glutamine in a 37° C. humidified incubator with 5% CO2. […] The medium was replaced after 4 days. Alizarin Red S staining was performed at room temperature by removing the culture medium, washing the cells twice with 1×PBS (pH 7.4), fixing the cells in 10% neutral buffered formalin (Richard-Allan Scientific, Kalamazoo, Mich., USA) for 30 min, rinsing twice with Milli-Q water, staining with Alizarin Red S for 30 min, and destaining twice in Milli-Q water. A ZEISS inverted fluorescence/brightfield microscope equipped with an Infinity 3 digital camera and software system was used for imaging.

Saos-2 cell line = assay: Alizarin Red S (ARS) biomineralization assay in Saos-2; format: cell-based, human; conditions: MEMα/10% FBS plus the supplement only, no ALP added, 7 days
Protocol: as §1

Structure (SMILES): C[C@@H]1C[C@H]2[C@@H]3CCC4=CC(=O)C=C[C@]4(C)[C@@]3(F)[C@@H](O)C[C@]2(C)[C@@]1(O)C(=O)CO [Dex, Dexamethasone]
- biomineralization (Alizarin Red S staining) (MG-63 cell line): No mineralization
- biomineralization (Alizarin Red S staining) (Saos-2 cell line): No mineralization
